# Measurements reported in PubChem BioAssay AID504804 (Drosophila RNAi Screening Center, 2011)
# Aim: 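dsRNAs that improve Kc cell survival under doxorubicin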 (primary screen)
# Cell system: Drosophila Kc cells
# Reagent: long dsRNA against Drosophila genes, 0.5 µg dsRNA per well
# Duration: 96 h (48 h knock-down, then 48 h drug)
# Treatment: doxorubicin 5 µg/ml for 48 h, added 48 h after dsRNA
# Read-out: 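Luminescent ATP counts per replicate, not normalised, reflecting viable cells after 48 h dsRNA knock-down followed by 48 h of 5 µg/ml doxorubicin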
# Scale: raw ATP luminescence: higher = more viable cells, protection from doxorubicin
# Active means: 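Active when both duplicate wells lie at least 2 SD above the plate mean and protection is confirmed by rescreening and independent dsRNAs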
# The screen tested about 19,000 reagents; shown is an unselected part of those with a known target gene and a result. Of all reagents, 47 (0.25%) are marked active. 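Signals are raw, not normalised; exact z-scores behind calls not deposited; actives needed confirmation, so some wells reaching 2 SD are inactive.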 A plus sign joins genes that one reagent is predicted to hit.
gene,dsRNA,SD above plate mean,"raw ATP luminescence, replicate 1","raw ATP luminescence, replicate 2",Outcome
Efr,DRSC18322,,37960,40410,inactive
CG12824,DRSC06173,,50433,1.01e5,inactive
CG8746,DRSC07257,,31837,57140,inactive
onecut,DRSC17175,,47820,54960,inactive
pyd,DRSC12712,,79057,79647,inactive
pyd,DRSC14387,,55663,20773,inactive
pyd,DRSC14445,,63333,63263,inactive
pyd,DRSC14509,at least 2 SD above plate mean,86890,81950,active
pyd,DRSC16547,,54020,33987,inactive
pyd,DRSC16548,,46887,45790,inactive
pyd,DRSC17041,,58527,65203,inactive
CG17207,DRSC15198,,69587,64583,inactive
CG2641,DRSC15441,,57083,49187,inactive
CG42237,DRSC19891,,3.18e5,3.28e5,inactive
Snx3,DRSC16027,,44197,58960,inactive
Idgf5,DRSC06919,,59987,55617,inactive
CR18275 + CG13373,DRSC17900,,38430,52010,inactive
dtn,DRSC17939,,38400,37390,inactive
CG34280,DRSC13229,,2.45e5,2.52e5,inactive
CR46300,DRSC12467,,82643,70910,inactive
CG43325,DRSC04157,,50067,63490,inactive
CG14420,DRSC17917,,46600,47030,inactive
Sytalpha,DRSC02869,,60673,75960,inactive
hh,DRSC16965,,70110,69010,inactive
CG5746,DRSC15868,,45523,48373,inactive
Adgf-D,DRSC16521,,74680,96090,inactive
CG34345,DRSC02126,,24663,32077,inactive
CG15646,DRSC19682,,3.29e5,2.79e5,inactive
CG32985,DRSC02634,,41720,78880,inactive
Nf-YB,DRSC02057,,47860,46167,inactive
CG8642,DRSC07228,,34093,63843,inactive
CG12438,DRSC02167,,30760,52900,inactive
orb2,DRSC10540,,51260,43573,inactive
orb2,DRSC10541,,72727,78847,inactive
orb2,DRSC10542,,39697,38210,inactive
obst-G,DRSC11103,,91710,75760,inactive
fd3F (retired record) + Crg-1,DRSC17283,,2.66e5,2.44e5,inactive
CG8526,DRSC16438,,56360,58483,inactive
eys,DRSC00113,,2.20e5,2.05e5,inactive
eys,DRSC00695,,1.16e5,82963,inactive
SMC5,DRSC11849,,21800,26657,inactive
CG41099,DRSC21049,,3.61e5,3.15e5,inactive
CG41099,DRSC21051,,3.31e5,2.23e5,inactive
CR31958,DRSC00282,,24857,27657,inactive
CG3740,DRSC18508,,43010,62750,inactive
CG15207 (retired record),DRSC19653,,3.42e5,3.96e5,inactive
spict,DRSC02157,,98557,72800,inactive
Eig71Ei,DRSC11156,,62950,63260,inactive
CG15172,DRSC02473,,46923,44477,inactive
E2f2,DRSC03320,,64337,57787,inactive
Non3,DRSC16359,,46687,48910,inactive
Pc,DRSC11873,,51730,45873,inactive
eIF2Bbeta,DRSC18465,,70660,40120,inactive
CG7443,DRSC16244,,67280,55240,inactive
rau,DRSC03125,,1.06e5,74370,inactive
ash2,DRSC16902,,60813,50057,inactive
CG14926,DRSC02409,,43000,50373,inactive
fd3F + CG42499 (retired record),DRSC18160,,34410,46820,inactive
fd3F + CG42499 (retired record),DRSC18161,,42790,38800,inactive
CG31710,DRSC01089,,3.42e5,3.14e5,inactive
CG30495,DRSC06703,,36670,59120,inactive
CG7518,DRSC16253,,61910,26477,inactive
l(1)sc,DRSC18789,,42370,50000,inactive
CG11438,DRSC11660,,71007,57730,inactive
Etl1,DRSC02911,,87480,64297,inactive
alrm,DRSC14436,,51110,50300,inactive
Ppcs,DRSC14127,,43557,62540,inactive
CG42326,DRSC06483,,45263,69957,inactive
CG42326,DRSC06484,,43927,73607,inactive
CG5104,DRSC11765,,79577,69673,inactive
CG10674,DRSC09775,,68883,86783,inactive
mEFTs,DRSC02953,,1.06e5,68517,inactive
snRNP-U1-C,DRSC15804,,30460,32330,inactive
OdsH,DRSC20263,,3.32e5,2.82e5,inactive
gd,DRSC20336,,3.22e5,3.29e5,inactive
Mgat3,DRSC01305,,2.72e5,2.30e5,inactive
CG3732,DRSC04410,,57873,82353,inactive
Acp26Ab,DRSC01856,,32543,43300,inactive
Nep1,DRSC18389,,15290,17590,inactive
fru,DRSC16951,,17470,19370,inactive
fru,DRSC16952,,67730,77010,inactive
fru,DRSC16953,,66110,47310,inactive
Pgam5-2,DRSC04278,,42010,49570,inactive
me31B,DRSC03569,,78373,60190,inactive
Roe1,DRSC07534,,59173,67560,inactive
CG31705,DRSC01991,,76010,62763,inactive
CG15561,DRSC15100,,67110,55310,inactive
CG4291,DRSC00650,,1.09e5,71987,inactive
CG2611,DRSC02710,,54773,65370,inactive
Sec63,DRSC11002,,74087,82993,inactive
Or46a,DRSC07489,,32273,68860,inactive
Or46a,DRSC07490,,28667,65693,inactive
mamo,DRSC19370,,2.46e5,2.21e5,inactive
CG2182,DRSC12308,,73450,33067,inactive
CG34342,DRSC09756,,61333,70403,inactive
Rab40,DRSC19820,,3.37e5,3.22e5,inactive
Lamp1,DRSC03727,,30900,29177,inactive
CG8312,DRSC16406,,64900,63837,inactive
faf,DRSC16942,,62960,59450,inactive
CG11883,DRSC06094,,53453,56107,inactive
Sec15,DRSC16179,,64490,1.03e5,inactive
CG42374 + Mettl5,DRSC11085,,21820,19497,inactive
dpr1,DRSC05906,,83193,63477,inactive
Cap-H2,DRSC14908,,44160,26157,inactive
Muc68Ca,DRSC10312,,1.72e5,1.74e5,inactive
Muc68Ca,DRSC10313,,80773,62460,inactive
CG5567,DRSC10517,,25490,32373,inactive

14 of these entries, set out differently:
{"gene": "Nep1", "dsRNA": "DRSC18389", "raw ATP luminescence, replicate 1": 15290, "raw ATP luminescence, replicate 2": 17590, "Outcome": "inactive"}
{"gene": "fru", "dsRNA": "DRSC16951", "raw ATP luminescence, replicate 1": 17470, "raw ATP luminescence, replicate 2": 19370, "Outcome": "inactive"}
{"gene": "fru", "dsRNA": "DRSC16952", "raw ATP luminescence, replicate 1": 67730, "raw ATP luminescence, replicate 2": 77010, "Outcome": "inactive"}
{"gene": "fru", "dsRNA": "DRSC16953", "raw ATP luminescence, replicate 1": 66110, "raw ATP luminescence, replicate 2": 47310, "Outcome": "inactive"}
{"gene": "Pgam5-2", "dsRNA": "DRSC04278", "raw ATP luminescence, replicate 1": 42010, "raw ATP luminescence, replicate 2": 49570, "Outcome": "inactive"}
{"gene": "me31B", "dsRNA": "DRSC03569", "raw ATP luminescence, replicate 1": 78373, "raw ATP luminescence, replicate 2": 60190, "Outcome": "inactive"}
{"gene": "Roe1", "dsRNA": "DRSC07534", "raw ATP luminescence, replicate 1": 59173, "raw ATP luminescence, replicate 2": 67560, "Outcome": "inactive"}
{"gene": "CG31705", "dsRNA": "DRSC01991", "raw ATP luminescence, replicate 1": 76010, "raw ATP luminescence, replicate 2": 62763, "Outcome": "inactive"}
{"gene": "CG15561", "dsRNA": "DRSC15100", "raw ATP luminescence, replicate 1": 67110, "raw ATP luminescence, replicate 2": 55310, "Outcome": "inactive"}
{"gene": "CG4291", "dsRNA": "DRSC00650", "raw ATP luminescence, replicate 1": 1.09e5, "raw ATP luminescence, replicate 2": 71987, "Outcome": "inactive"}
{"gene": "CG2611", "dsRNA": "DRSC02710", "raw ATP luminescence, replicate 1": 54773, "raw ATP luminescence, replicate 2": 65370, "Outcome": "inactive"}
{"gene": "Sec63", "dsRNA": "DRSC11002", "raw ATP luminescence, replicate 1": 74087, "raw ATP luminescence, replicate 2": 82993, "Outcome": "inactive"}
{"gene": "Or46a", "dsRNA": "DRSC07489", "raw ATP luminescence, replicate 1": 32273, "raw ATP luminescence, replicate 2": 68860, "Outcome": "inactive"}
{"gene": "Or46a", "dsRNA": "DRSC07490", "raw ATP luminescence, replicate 1": 28667, "raw ATP luminescence, replicate 2": 65693, "Outcome": "inactive"}
